Measured values taken from PMC8060413.
Results are given in words; binding and its absence hold for the method and conditions named. Some results given as binding are weak or reduced against the parent protein; the word gives no strength.

T1: Ssz1 C81S C86S (subunit of the cysteine RAC variants) (yeast) (UniProt P38788)
T1 sequence: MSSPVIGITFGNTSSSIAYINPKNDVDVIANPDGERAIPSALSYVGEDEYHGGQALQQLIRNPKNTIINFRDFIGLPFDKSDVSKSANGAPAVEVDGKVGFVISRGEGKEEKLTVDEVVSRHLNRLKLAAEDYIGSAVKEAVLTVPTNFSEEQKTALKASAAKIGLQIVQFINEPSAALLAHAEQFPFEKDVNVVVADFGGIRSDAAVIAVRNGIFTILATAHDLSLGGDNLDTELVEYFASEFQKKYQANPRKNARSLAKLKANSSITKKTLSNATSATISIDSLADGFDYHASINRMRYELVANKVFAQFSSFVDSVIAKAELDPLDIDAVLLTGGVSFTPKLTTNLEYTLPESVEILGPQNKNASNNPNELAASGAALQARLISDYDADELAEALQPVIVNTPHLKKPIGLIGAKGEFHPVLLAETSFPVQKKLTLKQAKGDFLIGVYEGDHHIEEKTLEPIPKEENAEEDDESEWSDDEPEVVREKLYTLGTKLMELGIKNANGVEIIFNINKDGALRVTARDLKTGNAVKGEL

B1: Zuo1 C167S K351C S395C (protein, UniProt P32527 1-433)
chain: MFSLPTLTSDITVEVNSSATKTPFVRRPVEPVGKFFLQHAQRTLRNHTWSEFERIEAEKNVKTVDESNVDPDELLFDTELADEDLLTHDARDWKTADLYAAMGLSKLRFRATESQIIKAHRKQVVKYHPDKQSAAGGSLDQDGFFKIIQKAFETLTDSNKRAQYDSSDFVADVPPPKKGTDYDFYEAWGPVFEAEARFSKKTPIPSLGNKDSSKKEVEQFYAFWHRFDSWRTFEFLDEDVPDDSSNRDHKRYIERKNKAARDKKKTADNARLVKLVERAVSEDPRIKMFKEEEKKEKERRKWEREAGARAEAEAKAKAEAEAKAKAESEAKANASAKADKKKAKEAAKAACKKNKRAIRNSAKEADYFGDADKATTIDEQVGLIVDSLNDEELVCTADKIKANAAGAKEVLKESAKTIVDSGKLPSSLLSYFV
B2: Zuo1 C167S K351C T417C (protein, UniProt P32527 1-433)
chain: MFSLPTLTSDITVEVNSSATKTPFVRRPVEPVGKFFLQHAQRTLRNHTWSEFERIEAEKNVKTVDESNVDPDELLFDTELADEDLLTHDARDWKTADLYAAMGLSKLRFRATESQIIKAHRKQVVKYHPDKQSAAGGSLDQDGFFKIIQKAFETLTDSNKRAQYDSSDFVADVPPPKKGTDYDFYEAWGPVFEAEARFSKKTPIPSLGNKDSSKKEVEQFYAFWHRFDSWRTFEFLDEDVPDDSSNRDHKRYIERKNKAARDKKKTADNARLVKLVERAVSEDPRIKMFKEEEKKEKERRKWEREAGARAEAEAKAKAEAEAKAKAESEAKANASAKADKKKAKEAAKAACKKNKRAIRNSAKEADYFGDADKATTIDEQVGLIVDSLNDEELVSTADKIKANAAGAKEVLKESAKCIVDSGKLPSSLLSYFV
B3: Zuo1 C167S K363C S387C (protein, UniProt P32527 1-433)
chain: MFSLPTLTSDITVEVNSSATKTPFVRRPVEPVGKFFLQHAQRTLRNHTWSEFERIEAEKNVKTVDESNVDPDELLFDTELADEDLLTHDARDWKTADLYAAMGLSKLRFRATESQIIKAHRKQVVKYHPDKQSAAGGSLDQDGFFKIIQKAFETLTDSNKRAQYDSSDFVADVPPPKKGTDYDFYEAWGPVFEAEARFSKKTPIPSLGNKDSSKKEVEQFYAFWHRFDSWRTFEFLDEDVPDDSSNRDHKRYIERKNKAARDKKKTADNARLVKLVERAVSEDPRIKMFKEEEKKEKERRKWEREAGARAEAEAKAKAEAEAKAKAESEAKANASAKADKKKAKEAAKAAKKKNKRAIRNSACEADYFGDADKATTIDEQVGLIVDCLNDEELVSTADKIKANAAGAKEVLKESAKTIVDSGKLPSSLLSYFV
B4: Zuo1 C167S K363C S395C (protein, UniProt P32527 1-433)
chain: MFSLPTLTSDITVEVNSSATKTPFVRRPVEPVGKFFLQHAQRTLRNHTWSEFERIEAEKNVKTVDESNVDPDELLFDTELADEDLLTHDARDWKTADLYAAMGLSKLRFRATESQIIKAHRKQVVKYHPDKQSAAGGSLDQDGFFKIIQKAFETLTDSNKRAQYDSSDFVADVPPPKKGTDYDFYEAWGPVFEAEARFSKKTPIPSLGNKDSSKKEVEQFYAFWHRFDSWRTFEFLDEDVPDDSSNRDHKRYIERKNKAARDKKKTADNARLVKLVERAVSEDPRIKMFKEEEKKEKERRKWEREAGARAEAEAKAKAEAEAKAKAESEAKANASAKADKKKAKEAAKAAKKKNKRAIRNSACEADYFGDADKATTIDEQVGLIVDSLNDEELVCTADKIKANAAGAKEVLKESAKTIVDSGKLPSSLLSYFV
B5: Zuo1 C167S K363C T417C (protein, UniProt P32527 1-433)
chain: MFSLPTLTSDITVEVNSSATKTPFVRRPVEPVGKFFLQHAQRTLRNHTWSEFERIEAEKNVKTVDESNVDPDELLFDTELADEDLLTHDARDWKTADLYAAMGLSKLRFRATESQIIKAHRKQVVKYHPDKQSAAGGSLDQDGFFKIIQKAFETLTDSNKRAQYDSSDFVADVPPPKKGTDYDFYEAWGPVFEAEARFSKKTPIPSLGNKDSSKKEVEQFYAFWHRFDSWRTFEFLDEDVPDDSSNRDHKRYIERKNKAARDKKKTADNARLVKLVERAVSEDPRIKMFKEEEKKEKERRKWEREAGARAEAEAKAKAEAEAKAKAESEAKANASAKADKKKAKEAAKAAKKKNKRAIRNSACEADYFGDADKATTIDEQVGLIVDSLNDEELVSTADKIKANAAGAKEVLKESAKCIVDSGKLPSSLLSYFV
B6: Zuo1 C167S K351C (protein, UniProt P32527 1-433)
chain: MFSLPTLTSDITVEVNSSATKTPFVRRPVEPVGKFFLQHAQRTLRNHTWSEFERIEAEKNVKTVDESNVDPDELLFDTELADEDLLTHDARDWKTADLYAAMGLSKLRFRATESQIIKAHRKQVVKYHPDKQSAAGGSLDQDGFFKIIQKAFETLTDSNKRAQYDSSDFVADVPPPKKGTDYDFYEAWGPVFEAEARFSKKTPIPSLGNKDSSKKEVEQFYAFWHRFDSWRTFEFLDEDVPDDSSNRDHKRYIERKNKAARDKKKTADNARLVKLVERAVSEDPRIKMFKEEEKKEKERRKWEREAGARAEAEAKAKAEAEAKAKAESEAKANASAKADKKKAKEAAKAACKKNKRAIRNSAKEADYFGDADKATTIDEQVGLIVDSLNDEELVSTADKIKANAAGAKEVLKESAKTIVDSGKLPSSLLSYFV
B7: Zuo1 C167S K363C (protein, UniProt P32527 1-433)
chain: MFSLPTLTSDITVEVNSSATKTPFVRRPVEPVGKFFLQHAQRTLRNHTWSEFERIEAEKNVKTVDESNVDPDELLFDTELADEDLLTHDARDWKTADLYAAMGLSKLRFRATESQIIKAHRKQVVKYHPDKQSAAGGSLDQDGFFKIIQKAFETLTDSNKRAQYDSSDFVADVPPPKKGTDYDFYEAWGPVFEAEARFSKKTPIPSLGNKDSSKKEVEQFYAFWHRFDSWRTFEFLDEDVPDDSSNRDHKRYIERKNKAARDKKKTADNARLVKLVERAVSEDPRIKMFKEEEKKEKERRKWEREAGARAEAEAKAKAEAEAKAKAESEAKANASAKADKKKAKEAAKAAKKKNKRAIRNSACEADYFGDADKATTIDEQVGLIVDSLNDEELVSTADKIKANAAGAKEVLKESAKTIVDSGKLPSSLLSYFV
B8: Zuo1 C167S S328C K351C (protein, UniProt P32527 1-433)
chain: MFSLPTLTSDITVEVNSSATKTPFVRRPVEPVGKFFLQHAQRTLRNHTWSEFERIEAEKNVKTVDESNVDPDELLFDTELADEDLLTHDARDWKTADLYAAMGLSKLRFRATESQIIKAHRKQVVKYHPDKQSAAGGSLDQDGFFKIIQKAFETLTDSNKRAQYDSSDFVADVPPPKKGTDYDFYEAWGPVFEAEARFSKKTPIPSLGNKDSSKKEVEQFYAFWHRFDSWRTFEFLDEDVPDDSSNRDHKRYIERKNKAARDKKKTADNARLVKLVERAVSEDPRIKMFKEEEKKEKERRKWEREAGARAEAEAKAKAEAEAKAKAECEAKANASAKADKKKAKEAAKAACKKNKRAIRNSAKEADYFGDADKATTIDEQVGLIVDSLNDEELVSTADKIKANAAGAKEVLKESAKTIVDSGKLPSSLLSYFV
B9: Zuo1 C167S S335C K351C (protein, UniProt P32527 1-433)
chain: MFSLPTLTSDITVEVNSSATKTPFVRRPVEPVGKFFLQHAQRTLRNHTWSEFERIEAEKNVKTVDESNVDPDELLFDTELADEDLLTHDARDWKTADLYAAMGLSKLRFRATESQIIKAHRKQVVKYHPDKQSAAGGSLDQDGFFKIIQKAFETLTDSNKRAQYDSSDFVADVPPPKKGTDYDFYEAWGPVFEAEARFSKKTPIPSLGNKDSSKKEVEQFYAFWHRFDSWRTFEFLDEDVPDDSSNRDHKRYIERKNKAARDKKKTADNARLVKLVERAVSEDPRIKMFKEEEKKEKERRKWEREAGARAEAEAKAKAEAEAKAKAESEAKANACAKADKKKAKEAAKAACKKNKRAIRNSAKEADYFGDADKATTIDEQVGLIVDSLNDEELVSTADKIKANAAGAKEVLKESAKTIVDSGKLPSSLLSYFV
B10: Zuo1 C167S K337C K351C (protein, UniProt P32527 1-433)
chain: MFSLPTLTSDITVEVNSSATKTPFVRRPVEPVGKFFLQHAQRTLRNHTWSEFERIEAEKNVKTVDESNVDPDELLFDTELADEDLLTHDARDWKTADLYAAMGLSKLRFRATESQIIKAHRKQVVKYHPDKQSAAGGSLDQDGFFKIIQKAFETLTDSNKRAQYDSSDFVADVPPPKKGTDYDFYEAWGPVFEAEARFSKKTPIPSLGNKDSSKKEVEQFYAFWHRFDSWRTFEFLDEDVPDDSSNRDHKRYIERKNKAARDKKKTADNARLVKLVERAVSEDPRIKMFKEEEKKEKERRKWEREAGARAEAEAKAKAEAEAKAKAESEAKANASACADKKKAKEAAKAACKKNKRAIRNSAKEADYFGDADKATTIDEQVGLIVDSLNDEELVSTADKIKANAAGAKEVLKESAKTIVDSGKLPSSLLSYFV
B11: Zuo1 C167S K351C K363C (protein, UniProt P32527 1-433)
chain: MFSLPTLTSDITVEVNSSATKTPFVRRPVEPVGKFFLQHAQRTLRNHTWSEFERIEAEKNVKTVDESNVDPDELLFDTELADEDLLTHDARDWKTADLYAAMGLSKLRFRATESQIIKAHRKQVVKYHPDKQSAAGGSLDQDGFFKIIQKAFETLTDSNKRAQYDSSDFVADVPPPKKGTDYDFYEAWGPVFEAEARFSKKTPIPSLGNKDSSKKEVEQFYAFWHRFDSWRTFEFLDEDVPDDSSNRDHKRYIERKNKAARDKKKTADNARLVKLVERAVSEDPRIKMFKEEEKKEKERRKWEREAGARAEAEAKAKAEAEAKAKAESEAKANASAKADKKKAKEAAKAACKKNKRAIRNSACEADYFGDADKATTIDEQVGLIVDSLNDEELVSTADKIKANAAGAKEVLKESAKTIVDSGKLPSSLLSYFV

Biological target: T1, Ssz1 C81S C86S (subunit of the cysteine RAC variants) (yeast)
Assay: co-purification (Ni-IDA affinity, anion exchange, size exclusion); Ssz1 and Zuo1 co-expressed in E. coli; complex held on Ni-IDA by His6-SUMO on Ssz1, washed with 100 mM and 1 M KAc, eluted with 300 mM imidazole; His6-SUMO removed by Ulp1; then ResourceQ and HiLoad Superdex 200 in 40 mM HEPES pH 7.4, 100 mM KAc, 5 mM MgCl2, 5% glycerol

| Binder | binding |
| --- | --- |
| B1 | binds |
| B2 | binds |
| B3 | binds |
| B4 | binds |
| B5 | binds |
| B6 | binds |
| B7 | binds |
| B8 | binds |
| B9 | binds |
| B10 | binds |
| B11 | binds |
